Test systems include DCXR (human); DDAH2 (human); DDX39 (human); DEFA6 (human); DEFB1 (human); DEFB119 (human); DERL1 (human); DERL2 (human); DFFA (human); DFNA5 (human); DGCR6 (human); DGUOK (human); DHDDS (human); DHX16 (human); DHX30 (human); DHX32 (human); DIABLO (human); DIP (human).
Holding throughout (assay): protein microarray (ProtoArray v5.0), streptavidin-Alexa Fluor 647
Holding throughout (details): 3'-biotin; 20 mM Tris (pH 7.5), 5 mM MgCl2, 100 mM KCl, 0.1% Tween-20, A/T-rich and random oligonucleotide blockers; temperature not stated; high values mean tight binding

Test [1] deals with DENN domain-containing protein 1B (human).
Test [2] has as its system DIS3-like exonuclease 1 (human).

Several values for one entry are separate records, joined by “and”; a condition that tells them apart may be missing. Identical values can stand only once. Some of the results follow.

As to “GGGAGGCTGAGGCAGG [G4-1 biotinylated (PQS2)]”, the binding signal in the test with DCXR (human) was -0.315 z-score; in the test on DDAH2 (human), -0.307 z-score; in the test with DDX39 (human), -0.265 z-score and -0.287 z-score; in the test on DEFA6 (human) it was -0.35 z-score; in the test on DEFB1 (human) it was -0.304 z-score; with DEFB119 (human), -0.323 z-score. Besides, the binding signal in test [1] was -0.298 z-score; with DERL1 (human), -0.276 z-score; in the test with DERL2 (human) it was -0.31 z-score; in the test with DFFA (human), -0.36 z-score and -0.361 z-score; in the test with DFNA5 (human), -0.364 z-score; in the test on DGCR6 (human), -0.355 z-score. Also, the binding signal is -0.31 z-score with DGUOK (human); -0.296 z-score with DHDDS (human); -0.279 z-score in the test on DHX16 (human); -0.287 z-score with DHX30 (human); -0.336 z-score in the test on DHX32 (human); -0.35 z-score with DIABLO (human). Also, the figures for the binding signal (in the test on DIP (human); in [2]) were -0.329 z-score and -0.312 z-score, respectively.

These data come from paper PMC5996148.
